Measured values published in paper doi:10.1101/2025.01.22.634223.
No constants are given. Whether binding was seen depends on the method and setting. Binding seen in cells or lysates may run through a third protein. Some entries that bind do so weakly or less than the wild type. Sequences can lack the tags named with a protein.

By UniProt entry, the sequences of proteins in these tests, tags left out.
UniProt Q94361: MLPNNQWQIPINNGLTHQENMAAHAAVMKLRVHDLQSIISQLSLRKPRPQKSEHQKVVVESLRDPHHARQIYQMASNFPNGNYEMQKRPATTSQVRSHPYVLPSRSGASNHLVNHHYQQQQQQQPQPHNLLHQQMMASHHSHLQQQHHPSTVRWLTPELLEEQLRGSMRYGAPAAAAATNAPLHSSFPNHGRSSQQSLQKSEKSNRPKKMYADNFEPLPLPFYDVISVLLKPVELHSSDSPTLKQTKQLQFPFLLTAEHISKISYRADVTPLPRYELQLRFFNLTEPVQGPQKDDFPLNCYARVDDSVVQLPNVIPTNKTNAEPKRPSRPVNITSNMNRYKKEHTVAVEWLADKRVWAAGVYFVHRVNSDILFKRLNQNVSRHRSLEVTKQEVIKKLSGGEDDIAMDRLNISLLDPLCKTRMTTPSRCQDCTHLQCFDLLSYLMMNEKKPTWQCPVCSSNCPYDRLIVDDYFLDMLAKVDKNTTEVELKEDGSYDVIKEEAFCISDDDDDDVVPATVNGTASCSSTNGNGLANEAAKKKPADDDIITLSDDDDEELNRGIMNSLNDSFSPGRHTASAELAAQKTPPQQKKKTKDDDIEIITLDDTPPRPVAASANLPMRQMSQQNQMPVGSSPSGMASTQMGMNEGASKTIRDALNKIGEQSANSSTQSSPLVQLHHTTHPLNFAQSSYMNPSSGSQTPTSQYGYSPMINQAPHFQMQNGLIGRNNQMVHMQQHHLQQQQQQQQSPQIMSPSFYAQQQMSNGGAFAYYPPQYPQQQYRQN
UniProt O75925: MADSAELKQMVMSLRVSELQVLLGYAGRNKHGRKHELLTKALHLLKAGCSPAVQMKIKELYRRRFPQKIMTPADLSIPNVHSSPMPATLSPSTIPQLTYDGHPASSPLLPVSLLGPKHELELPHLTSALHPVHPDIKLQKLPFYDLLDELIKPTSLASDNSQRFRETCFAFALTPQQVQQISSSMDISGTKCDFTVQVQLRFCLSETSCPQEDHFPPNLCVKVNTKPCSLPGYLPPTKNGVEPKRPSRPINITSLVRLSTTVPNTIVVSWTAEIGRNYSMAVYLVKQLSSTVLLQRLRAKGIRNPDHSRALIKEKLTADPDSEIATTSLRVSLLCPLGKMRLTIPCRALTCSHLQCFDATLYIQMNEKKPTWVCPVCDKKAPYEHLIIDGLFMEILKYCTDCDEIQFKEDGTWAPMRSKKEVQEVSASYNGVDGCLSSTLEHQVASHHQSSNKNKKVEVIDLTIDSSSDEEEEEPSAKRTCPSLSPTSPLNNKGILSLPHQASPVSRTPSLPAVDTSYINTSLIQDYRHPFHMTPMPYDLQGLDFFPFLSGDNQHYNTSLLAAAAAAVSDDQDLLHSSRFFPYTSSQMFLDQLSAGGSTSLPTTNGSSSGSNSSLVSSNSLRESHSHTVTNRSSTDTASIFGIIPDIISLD
UniProt P62820: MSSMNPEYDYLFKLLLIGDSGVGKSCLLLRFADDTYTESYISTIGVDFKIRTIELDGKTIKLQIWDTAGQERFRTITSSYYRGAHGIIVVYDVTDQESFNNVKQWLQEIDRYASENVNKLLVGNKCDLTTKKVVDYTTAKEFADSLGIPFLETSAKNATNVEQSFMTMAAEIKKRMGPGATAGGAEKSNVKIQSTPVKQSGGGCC

Biological target: T1, HA::hGDI1 expressed in HEK293T cells (human) (UniProt P31150)
T1 sequence: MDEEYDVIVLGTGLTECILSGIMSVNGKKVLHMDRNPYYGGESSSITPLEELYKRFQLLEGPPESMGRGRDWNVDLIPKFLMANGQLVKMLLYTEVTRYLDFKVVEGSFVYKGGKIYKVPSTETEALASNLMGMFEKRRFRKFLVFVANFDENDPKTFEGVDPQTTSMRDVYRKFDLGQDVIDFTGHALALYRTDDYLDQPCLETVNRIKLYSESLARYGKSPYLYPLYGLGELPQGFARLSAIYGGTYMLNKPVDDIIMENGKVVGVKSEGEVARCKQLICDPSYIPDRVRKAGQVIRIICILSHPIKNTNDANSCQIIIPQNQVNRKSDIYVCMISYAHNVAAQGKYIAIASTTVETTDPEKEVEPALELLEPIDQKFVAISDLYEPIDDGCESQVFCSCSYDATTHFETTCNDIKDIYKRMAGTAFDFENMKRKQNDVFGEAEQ
Test: co-IP

Question: With “GEI-17 expressed in HEK293T cells (from UniProt Q94361 1-780) (enzyme)” as the substance, how does the binding read?
Answer: Its binding is “binds”.

Question: “MYC::PIAS1 expressed in HEK293T cells (from UniProt O75925 1-651) (enzyme)” was tested. Which binding did it give?
Answer: The binding was “binds”.

Question: For “MYC::RAB1A expressed in HEK293T cells (from UniProt P62820 1-205)”, which binding is on record?
Answer: The binding was “binds”.
